Over roughly 33,000 sequences, “E-score (-0.5 to 0.5)” has its median near -0.0059; the highest 2% begin near 0.26. This is one part of the list.
Each sequence was assayed against T1, Cin5 (UniProt P40917) (assay: PBM E-score (8-mer binding enrichment) (E-score (-0.5 to 0.5)); higher = stronger / more preferred TF binding). Details: protein concentration: 100 nM; construct: GST-full length.
T1 sequence: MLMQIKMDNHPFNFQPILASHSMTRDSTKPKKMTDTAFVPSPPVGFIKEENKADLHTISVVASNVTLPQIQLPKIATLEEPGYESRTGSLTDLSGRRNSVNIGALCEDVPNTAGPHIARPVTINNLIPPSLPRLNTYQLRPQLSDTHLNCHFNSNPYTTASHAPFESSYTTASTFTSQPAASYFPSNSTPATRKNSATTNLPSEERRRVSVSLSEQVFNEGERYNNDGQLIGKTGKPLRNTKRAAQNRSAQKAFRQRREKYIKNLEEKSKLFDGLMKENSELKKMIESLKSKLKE
Procedure, shortened: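 Universal all-10-mer Agilent arrays, double-stranded by primer extension on fresh or once-stripped slides, were probed with about 100-200 nM GST-tagged yeast transcription factors made by PURExpress. Fluorescent anti-GST detected bound protein, and masliner normalised the scans. E-scores from the Universal PBM Analysis Suite were given to each ungapped eight-base word pooled with its reverse complement.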

Sequence	PBM E-score
CGGTTGTA	-0.0842
TGATGCCA	0.058
CGGCGAAC	-0.104
CCGCATTA	0.157
ATACCCTC	0.0408
CTTTGTGC	-0.0496
TCCACTCA	0.0681
AGTTATGA	0.103
ATCGAGTA	0.12
GTTGAGGA	-0.0638
GTGTGCGA	-0.0825
CGGTCGAC	0.0342
AAAATAAA	0.184
CTACTTTC	0.0621
ATGTTCTC	-0.0863
ATGTCAGC	0.272
ACGGTTCT	-0.207
AGCCGGGA	-0.0505
CGCGGCGA	0.119
AACGGACG	-0.0256
AGAGTGAT	0.104
CTTTAACA	-0.0331

Sequence	PBM E-score
GTTAATTA	0.215
CCAATAGG	-0.0237
ATGGTCTA	-0.124
CTATTAGA	-0.0827
GAAACGTC	-0.11
TCTGAACA	0.0705
AAATATCA	0.179
CCCGATAC	-0.192
GTGCCAAA	-0.0496
AAGTTACC	0.0276
CCGGCCCA	-0.213
CTACGAAC	0.0375
ATACAGAT	0.229
ACTAGTCA	-0.0268
CTCGCATA	0.12
AAGGGTTG	-0.0186
AAACTGTC	-0.0272
ATCCCCTC	-0.0871
CGTACGAA	0.00617
AACTGCCT	0.0765
CTTGTTAA	-0.0283
CCTGCTTA	0.205

An excerpt of these results, in markdown:

| Sequence | PBM E-score |
| --- | --- |
| AAATATCA | 0.179 |
| GTGCCAAA | -0.0496 |
| ATACAGAT | 0.229 |

(list continues)

Sequence	PBM E-score
CTGCTGTA	-0.0655
GAGATGTA	0.154
GAAGAAGA	0.0189
AAACTGCT	-0.0489
CGGGGTGC	-0.0711
CTACGGTA	-0.0819
AAGCTCCG	0.00276
AGCGAAGA	-0.106
AAACACAG	0.101
CCCGTTAC	0.114
TCGTCAAA	0.0395
AAACTGAC	-0.14
GATTTTCC	-0.0244
TCGGTCCA	-0.0589
GTACTGTA	-0.114
ATGGCGAC	-0.11
ACTAATAG	0.277
ACGAACTA	0.105
CTCTTCAA	-0.224
CAAGTCGG	-0.00643
ACTTTCGG	-0.0738
AACGATTC	0.103

Sequence	PBM E-score
GTAGGCAC	-0.127
CTACACAG	-0.0209
ACCAATGC	0.0593
CCATCCGG	-0.107
CGATATAA	0.144
AGAATTGG	0.116
CCGGAAAA	0.0656
AATTTGGA	-0.0245
CAAAGTAA	0.168
ACCCTTCG	-0.189
ACTTCAAA	-0.116
GATAAAGA	0.0787
ACAGATTG	0.104
CACTCATA	0.15
CGATGCCA	-0.196
AATTGTTG	-0.0185
AAGGGCTC	-0.374
ACCACCTG	-0.0268
GCAGTCAC	-0.109
GTGACTCA	-0.0591

As a short view, part of the list above:
Sequence	PBM E-score
GATAAAGA	0.0787
ACAGATTG	0.104
CACTCATA	0.15
